Results from publication PMC12061305.
No constants are given. Whether binding was seen depends on the method and setting. In cells and extracts the contact can be indirect. Some binding calls cover weakened binding; strength is not graded here. For part of these data: Tags and fused reporters may be left off the sequences shown.

The chains behind the UniProt entries cited, without tags or fusion partners.
UniProt Q8VEK3: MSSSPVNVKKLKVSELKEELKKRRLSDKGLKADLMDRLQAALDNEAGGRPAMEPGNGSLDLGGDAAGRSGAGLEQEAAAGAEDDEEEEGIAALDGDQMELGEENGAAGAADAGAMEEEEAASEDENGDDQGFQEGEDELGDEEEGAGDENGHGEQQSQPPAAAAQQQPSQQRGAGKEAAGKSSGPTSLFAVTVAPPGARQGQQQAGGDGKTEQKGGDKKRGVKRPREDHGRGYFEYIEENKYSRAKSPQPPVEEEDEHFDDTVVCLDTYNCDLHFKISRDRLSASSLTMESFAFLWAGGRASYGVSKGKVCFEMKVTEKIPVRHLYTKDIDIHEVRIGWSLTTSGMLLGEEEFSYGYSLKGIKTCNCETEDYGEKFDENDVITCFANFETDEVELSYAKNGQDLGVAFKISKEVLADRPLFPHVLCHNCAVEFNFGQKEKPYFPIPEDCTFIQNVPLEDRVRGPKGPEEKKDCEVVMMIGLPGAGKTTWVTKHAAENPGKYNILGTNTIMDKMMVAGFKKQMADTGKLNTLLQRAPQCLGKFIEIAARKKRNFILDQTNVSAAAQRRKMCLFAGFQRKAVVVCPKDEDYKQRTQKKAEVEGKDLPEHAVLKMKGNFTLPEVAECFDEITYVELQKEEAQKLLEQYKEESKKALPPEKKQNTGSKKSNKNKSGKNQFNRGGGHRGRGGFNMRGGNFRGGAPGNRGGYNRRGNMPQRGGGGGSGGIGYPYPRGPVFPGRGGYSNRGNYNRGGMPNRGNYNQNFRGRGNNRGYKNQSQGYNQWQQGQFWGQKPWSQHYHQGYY
UniProt Q9WV02: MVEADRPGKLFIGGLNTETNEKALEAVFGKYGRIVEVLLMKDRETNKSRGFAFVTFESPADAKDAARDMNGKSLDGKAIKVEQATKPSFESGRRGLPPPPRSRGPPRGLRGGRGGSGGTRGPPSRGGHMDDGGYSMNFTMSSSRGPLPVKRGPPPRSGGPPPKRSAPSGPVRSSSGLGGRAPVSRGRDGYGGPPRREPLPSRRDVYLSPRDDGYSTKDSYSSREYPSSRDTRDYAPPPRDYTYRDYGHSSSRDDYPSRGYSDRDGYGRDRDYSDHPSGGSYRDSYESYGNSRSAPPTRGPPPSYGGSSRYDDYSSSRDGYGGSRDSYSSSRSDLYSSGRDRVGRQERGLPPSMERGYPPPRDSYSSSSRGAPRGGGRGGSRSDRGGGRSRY
UniProt Q9Z204: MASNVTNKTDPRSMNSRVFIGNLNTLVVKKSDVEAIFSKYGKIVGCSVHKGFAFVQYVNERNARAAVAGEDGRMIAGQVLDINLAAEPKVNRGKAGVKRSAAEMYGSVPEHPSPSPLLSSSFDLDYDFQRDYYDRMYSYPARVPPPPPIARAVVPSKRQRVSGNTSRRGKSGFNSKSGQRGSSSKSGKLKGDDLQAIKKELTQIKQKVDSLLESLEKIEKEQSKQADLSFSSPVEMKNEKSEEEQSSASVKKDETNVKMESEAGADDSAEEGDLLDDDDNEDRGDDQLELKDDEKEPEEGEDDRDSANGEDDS

B1: HA-Niban2 (protein, UniProt Q8R1F1 1-749)
chain: MGDVLSTHLDDARRQHIAEKTEKILTEFLRFYEDQYGVSLFNSMRHEIEGTGPPQAQLLWRKVPLDERIIFSGNLFQYQEDNKKWRNRFSLVPHNYGLVLYENKVAYERQIPPRAVINSAGYKVLTSVDQYLELVGNSLPGTTSKSGSTPILKCPTQFPLILWHPYARHYYFCMMTEAEQDKWQAVLQDCVRHCNNGIPENSKVEGPAFTDAIRMYRQSKEQYGTWEMLCGNEVQILSNLVMEELGPALKAELGPRLKGKPQERQRQWIQISDAVYRLVFEQAKVHFEDVLCKLQRARPAMEAVIRTDMDQIITSKEHLASKIRAFILPKAEVCVRNHVQPYIPSILEALMVPTSQGFTEVRDVFFKEVTDMNLNVINEGGIDKLGEYMEKLSQLAYHPLKMQSCYEKMEPLRLDGLQQRFDVSSTSVFKQRAQIHMREQMDNAVYTFETLLHQELGKGPTKEELCKSIQRILERVLKKYDYDSSSVRKRFFREALLQITIPFLLKKLAPTCKSELPRFQELIFEDFARFILVENTYEEVVLQTVMKDILQAVKEAAVQRKHNLYRDSMVLHNSDPNLHLLAEGTPIDWGEQYGDSGDSGGGDSGGSPCPSEAATLTEKRRRAKQVMSVVQDEESGLPFEAGVEPPSPASPDSVTELRGLLAQDLQAESSPPASPLLNGAPVQESSQPVAVPEASPPASPLRHLPPGKAVDLEPPKPSDQETGEQVSSPGSRPPIHTTTEDSAGVQTEF

Columns and labels:
[1] = molecular target: Hnrnpu (precipitated with anti-Hnrnpu antibody) (UniProt Q8VEK3); experiment: co-IP; HEK293T cells transfected with plasmids expressing HA-labeled spliceosome complex components, with or without HA-Niban2 overexpression; co-IP with anti-Hnrnpu antibody or preimmune IgG; immunoblot
Flag-Hnrnpu = Flag-Hnrnpu (UniProt Q8VEK3); experiment: co-IP; anti-Flag antibody for Flag-Hnrnpu or anti-HA antibody for HA-Niban2 (antibody-conjugated magnetic beads), immunoblot for Niban2 and Hnrnpu

Row | binding [1] | binding (Flag-Hnrnpu) | Molecule
1 | binds |  | HA-Rbmx (from UniProt Q9WV02 1-391)
2 | binds weakly |  | Hnrnpc (from UniProt Q9Z204 1-313)
3 |  | binds | B1
